Data taken from paper PMC8790634.
No constants are given. Whether binding was seen depends on the method and setting. Some entries that bind do so weakly or less than the wild type. For part of these data: Tags and fused reporters may be left off the sequences shown.

Experiments:
Experiment in all cases: two-hybrid; targeted Y2H: PJ69-7A co-transformed with AD and BD clones, 0.005 OD600 cells spotted on selection plates, 30°C, 3 days
[1] = molecular target: T1, Hub1 fused to the DNA binding domain (BD) of Gal4 at the C-terminus (S. cerevisiae) (UniProt Q6Q546)
T1 sequence: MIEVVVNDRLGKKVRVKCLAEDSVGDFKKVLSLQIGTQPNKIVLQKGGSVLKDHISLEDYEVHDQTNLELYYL

[2] = molecular target: T2, N-terminal BD-Hub1 fusion (S. cerevisiae) (UniProt Q6Q546)
T2 sequence: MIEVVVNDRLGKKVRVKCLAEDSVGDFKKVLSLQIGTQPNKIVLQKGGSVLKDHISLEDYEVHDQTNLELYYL

[3] = molecular target: T3, hub1-D22A mutant (S. cerevisiae) (UniProt Q6Q546)
T3 sequence: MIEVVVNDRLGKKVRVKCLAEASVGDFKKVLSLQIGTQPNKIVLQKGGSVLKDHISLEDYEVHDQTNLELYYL

B1: Full length (FL) Snu66 (protein, UniProt Q12420 1-587)
chain: MNKTENLSIEETNEIREKLGMKPIPVFQEKNTDHKESLSIEETNELRASLGLKLIPPQQNFNSSPPNVHNTSKIDELREKITKFQKKANAPLRMAHLLEETNVNDDSSWLENMDAIPSSHESKRSSTLPRKGATKEDENIDLHNVQVSYNIEALSPKKDTILTLKESSIFDDTDSTEVLENVKAAEENADREKLRLRQMNKDRRQKKKILNVSSLDIEEEEEGEKHSITTTHLIIGAEQGVMKAPNTISAKPPTGKVKVNFDSANNMSDEDGGDFKPLKIKKRKIKDPRSTKARKSKITDKMEIVKLVDEDESLSWMEEEQPVTIINPRTSSNNELKGPEDLAREIEKARDEEKRRTESILKMREISNSIVVDEKVTFLNTLDTSLSERSATENKVKVHGEGEKNIGDVTNGHTKEGSGNNTLTEAVNNEPNYEGDAENAPNFFSGLASTLGYLRKKSVFTTGDVDLKPGKDVNNSESLRRDVRNKEHTGTGTYTKDKLHGLEQFTSSDSSNANTHSKRQDHYDPDIKLVYRDEKGNRLTTKEAYKKLSQKFHGTKSNKKKRAKMKSRIEARKNTPENGSLFEFDDN
In the case of B1, the binding [1] is reported as “binds”, the binding [2] is reported as “binds” and the binding [3] is reported as “no binding”.
